Some of the results follow.
Each target was assayed with NC(=O)c1cnc(N[C@@H]2CCCC[C@@H]2N)nc1Nc1cccc(-n2nccn2)c1 (assay: log2 fold change, soluble protein after heating vs DMSO (PISA); higher = thermal stabilisation; K562 lysate, 10 uM; active = over 0.2 and 3.5 SD of the protein, either way, in both replicates (recomputed)).
In short: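 Thermal stability, expressed as log-two fold change relative to solvent controls, is given from duplicates. Crude K562 extract in PBS pH 7.4 with 1 mM MgCl2, at 1 mg/mL protein, was treated with 10 μM compound for 30 min and heated in aliquots for 3 min across 48°C-58°C. After pooling, adjustment to 0.5% NP-40 at 4°C and centrifugation at 21,000xg for 90 min, supernatant protein was measured by TMTpro 16plex LC-MS/MS with channel sums equalised.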

The chains behind the UniProt entries cited, without tags or fusion partners. Where a name states a change or a piece, a line headed by the entry shows the natural chain unless it says otherwise.
UniProt P15529: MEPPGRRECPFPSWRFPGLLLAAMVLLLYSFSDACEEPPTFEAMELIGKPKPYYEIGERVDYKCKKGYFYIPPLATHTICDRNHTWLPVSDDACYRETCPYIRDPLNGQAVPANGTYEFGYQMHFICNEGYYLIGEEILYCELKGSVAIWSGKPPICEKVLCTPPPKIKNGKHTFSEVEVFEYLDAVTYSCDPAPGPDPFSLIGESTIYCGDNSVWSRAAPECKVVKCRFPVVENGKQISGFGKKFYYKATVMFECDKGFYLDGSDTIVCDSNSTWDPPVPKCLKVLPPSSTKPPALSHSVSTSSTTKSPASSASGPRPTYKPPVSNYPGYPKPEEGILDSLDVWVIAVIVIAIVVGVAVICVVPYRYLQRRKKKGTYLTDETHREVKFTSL
UniProt P78371: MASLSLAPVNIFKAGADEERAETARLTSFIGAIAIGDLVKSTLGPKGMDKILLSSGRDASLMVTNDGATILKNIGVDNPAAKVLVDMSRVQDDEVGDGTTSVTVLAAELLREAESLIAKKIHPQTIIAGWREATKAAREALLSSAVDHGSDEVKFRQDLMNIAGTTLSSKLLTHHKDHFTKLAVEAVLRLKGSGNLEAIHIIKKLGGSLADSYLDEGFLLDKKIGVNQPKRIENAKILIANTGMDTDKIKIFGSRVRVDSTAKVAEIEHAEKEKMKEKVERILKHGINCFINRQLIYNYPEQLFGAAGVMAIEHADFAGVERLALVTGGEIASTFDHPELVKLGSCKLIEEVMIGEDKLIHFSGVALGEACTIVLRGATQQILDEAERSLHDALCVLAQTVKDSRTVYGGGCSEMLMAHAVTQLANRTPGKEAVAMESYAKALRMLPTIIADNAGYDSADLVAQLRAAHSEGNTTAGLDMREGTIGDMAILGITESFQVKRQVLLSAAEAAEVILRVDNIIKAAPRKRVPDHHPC
UniProt P42574: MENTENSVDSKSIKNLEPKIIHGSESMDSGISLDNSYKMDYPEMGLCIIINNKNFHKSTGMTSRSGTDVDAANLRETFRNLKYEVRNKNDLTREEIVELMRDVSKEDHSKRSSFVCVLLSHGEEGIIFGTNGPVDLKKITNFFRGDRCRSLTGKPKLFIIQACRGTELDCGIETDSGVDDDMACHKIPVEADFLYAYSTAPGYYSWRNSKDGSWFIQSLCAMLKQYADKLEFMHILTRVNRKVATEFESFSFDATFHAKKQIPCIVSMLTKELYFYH
UniProt P14635, whole entry, looked up: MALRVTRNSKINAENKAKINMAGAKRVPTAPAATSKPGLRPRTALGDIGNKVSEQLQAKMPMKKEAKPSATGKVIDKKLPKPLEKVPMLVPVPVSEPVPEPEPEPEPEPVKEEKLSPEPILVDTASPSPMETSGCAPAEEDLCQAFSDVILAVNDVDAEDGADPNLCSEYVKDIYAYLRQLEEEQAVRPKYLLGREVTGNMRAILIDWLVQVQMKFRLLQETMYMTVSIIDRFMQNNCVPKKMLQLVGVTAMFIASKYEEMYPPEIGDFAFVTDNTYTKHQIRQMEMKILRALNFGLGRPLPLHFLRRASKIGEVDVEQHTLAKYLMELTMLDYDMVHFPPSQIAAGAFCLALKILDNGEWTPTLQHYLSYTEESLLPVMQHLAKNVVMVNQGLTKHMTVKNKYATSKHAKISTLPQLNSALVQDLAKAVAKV
UniProt Q4VC31: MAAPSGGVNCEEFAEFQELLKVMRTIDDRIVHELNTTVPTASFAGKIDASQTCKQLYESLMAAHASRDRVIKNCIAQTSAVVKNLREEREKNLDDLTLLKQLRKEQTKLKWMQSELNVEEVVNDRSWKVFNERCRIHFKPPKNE
UniProt Q8WUD4: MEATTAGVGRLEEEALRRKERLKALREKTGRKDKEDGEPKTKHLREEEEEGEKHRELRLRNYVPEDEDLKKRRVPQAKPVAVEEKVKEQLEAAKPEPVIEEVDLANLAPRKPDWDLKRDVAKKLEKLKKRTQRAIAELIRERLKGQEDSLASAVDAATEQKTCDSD
UniProt Q567U6, whole entry, looked up: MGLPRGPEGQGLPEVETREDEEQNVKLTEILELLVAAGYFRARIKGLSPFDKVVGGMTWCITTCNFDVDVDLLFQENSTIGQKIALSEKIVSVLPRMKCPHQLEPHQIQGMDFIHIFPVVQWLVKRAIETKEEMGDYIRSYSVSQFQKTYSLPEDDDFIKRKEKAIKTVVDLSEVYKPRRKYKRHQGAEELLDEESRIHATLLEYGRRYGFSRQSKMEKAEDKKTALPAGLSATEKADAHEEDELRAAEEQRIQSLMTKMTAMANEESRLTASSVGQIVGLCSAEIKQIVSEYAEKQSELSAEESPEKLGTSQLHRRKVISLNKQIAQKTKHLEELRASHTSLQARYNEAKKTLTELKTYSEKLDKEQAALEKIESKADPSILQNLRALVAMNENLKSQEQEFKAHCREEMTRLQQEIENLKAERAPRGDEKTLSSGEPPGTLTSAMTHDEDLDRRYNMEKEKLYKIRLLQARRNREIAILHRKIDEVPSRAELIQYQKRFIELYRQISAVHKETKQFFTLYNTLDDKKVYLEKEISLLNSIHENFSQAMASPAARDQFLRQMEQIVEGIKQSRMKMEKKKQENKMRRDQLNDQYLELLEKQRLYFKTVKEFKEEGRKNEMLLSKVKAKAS
UniProt Q86WR0: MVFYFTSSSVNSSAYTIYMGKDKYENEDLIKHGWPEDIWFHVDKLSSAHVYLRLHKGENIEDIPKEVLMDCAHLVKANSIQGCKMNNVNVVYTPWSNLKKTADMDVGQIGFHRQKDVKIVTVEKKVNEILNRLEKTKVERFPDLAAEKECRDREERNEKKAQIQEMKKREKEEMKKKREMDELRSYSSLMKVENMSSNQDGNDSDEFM
UniProt Q8N7R7: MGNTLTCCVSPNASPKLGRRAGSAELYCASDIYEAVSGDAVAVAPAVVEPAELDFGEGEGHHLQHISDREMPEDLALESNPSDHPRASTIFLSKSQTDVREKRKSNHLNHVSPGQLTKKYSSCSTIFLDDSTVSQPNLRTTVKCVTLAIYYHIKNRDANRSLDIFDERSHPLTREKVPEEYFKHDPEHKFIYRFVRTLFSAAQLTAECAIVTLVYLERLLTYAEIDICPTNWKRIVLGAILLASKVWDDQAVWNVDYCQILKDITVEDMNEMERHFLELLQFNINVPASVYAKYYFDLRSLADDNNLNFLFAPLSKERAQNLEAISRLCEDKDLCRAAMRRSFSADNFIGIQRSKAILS
UniProt Q13191, whole entry, looked up: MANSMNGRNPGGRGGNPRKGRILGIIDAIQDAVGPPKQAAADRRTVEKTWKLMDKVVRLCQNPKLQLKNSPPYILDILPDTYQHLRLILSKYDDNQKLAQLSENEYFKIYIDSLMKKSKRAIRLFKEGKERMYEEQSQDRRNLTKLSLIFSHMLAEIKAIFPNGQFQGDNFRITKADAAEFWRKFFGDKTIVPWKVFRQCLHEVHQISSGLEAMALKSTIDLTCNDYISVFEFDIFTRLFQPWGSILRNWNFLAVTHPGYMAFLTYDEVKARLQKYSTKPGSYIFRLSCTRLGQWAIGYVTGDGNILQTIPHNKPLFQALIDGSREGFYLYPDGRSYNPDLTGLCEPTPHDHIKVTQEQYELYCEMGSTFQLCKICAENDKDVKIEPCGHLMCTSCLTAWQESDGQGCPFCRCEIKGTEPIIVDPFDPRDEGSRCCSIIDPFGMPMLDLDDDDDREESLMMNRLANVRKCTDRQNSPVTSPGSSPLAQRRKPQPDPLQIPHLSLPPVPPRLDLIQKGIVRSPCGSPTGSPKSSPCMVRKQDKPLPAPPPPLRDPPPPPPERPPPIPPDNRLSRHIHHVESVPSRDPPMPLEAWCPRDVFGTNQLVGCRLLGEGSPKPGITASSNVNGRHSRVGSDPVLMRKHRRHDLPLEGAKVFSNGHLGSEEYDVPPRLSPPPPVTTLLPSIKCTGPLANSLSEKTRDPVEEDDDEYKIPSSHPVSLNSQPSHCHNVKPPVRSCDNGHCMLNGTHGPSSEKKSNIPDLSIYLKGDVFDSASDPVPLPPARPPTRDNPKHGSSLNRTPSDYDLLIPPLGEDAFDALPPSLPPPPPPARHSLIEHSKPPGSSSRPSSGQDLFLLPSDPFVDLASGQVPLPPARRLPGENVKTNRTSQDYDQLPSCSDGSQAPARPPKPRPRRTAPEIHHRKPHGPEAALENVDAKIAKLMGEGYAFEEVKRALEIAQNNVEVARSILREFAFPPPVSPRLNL
UniProt Q8IX12: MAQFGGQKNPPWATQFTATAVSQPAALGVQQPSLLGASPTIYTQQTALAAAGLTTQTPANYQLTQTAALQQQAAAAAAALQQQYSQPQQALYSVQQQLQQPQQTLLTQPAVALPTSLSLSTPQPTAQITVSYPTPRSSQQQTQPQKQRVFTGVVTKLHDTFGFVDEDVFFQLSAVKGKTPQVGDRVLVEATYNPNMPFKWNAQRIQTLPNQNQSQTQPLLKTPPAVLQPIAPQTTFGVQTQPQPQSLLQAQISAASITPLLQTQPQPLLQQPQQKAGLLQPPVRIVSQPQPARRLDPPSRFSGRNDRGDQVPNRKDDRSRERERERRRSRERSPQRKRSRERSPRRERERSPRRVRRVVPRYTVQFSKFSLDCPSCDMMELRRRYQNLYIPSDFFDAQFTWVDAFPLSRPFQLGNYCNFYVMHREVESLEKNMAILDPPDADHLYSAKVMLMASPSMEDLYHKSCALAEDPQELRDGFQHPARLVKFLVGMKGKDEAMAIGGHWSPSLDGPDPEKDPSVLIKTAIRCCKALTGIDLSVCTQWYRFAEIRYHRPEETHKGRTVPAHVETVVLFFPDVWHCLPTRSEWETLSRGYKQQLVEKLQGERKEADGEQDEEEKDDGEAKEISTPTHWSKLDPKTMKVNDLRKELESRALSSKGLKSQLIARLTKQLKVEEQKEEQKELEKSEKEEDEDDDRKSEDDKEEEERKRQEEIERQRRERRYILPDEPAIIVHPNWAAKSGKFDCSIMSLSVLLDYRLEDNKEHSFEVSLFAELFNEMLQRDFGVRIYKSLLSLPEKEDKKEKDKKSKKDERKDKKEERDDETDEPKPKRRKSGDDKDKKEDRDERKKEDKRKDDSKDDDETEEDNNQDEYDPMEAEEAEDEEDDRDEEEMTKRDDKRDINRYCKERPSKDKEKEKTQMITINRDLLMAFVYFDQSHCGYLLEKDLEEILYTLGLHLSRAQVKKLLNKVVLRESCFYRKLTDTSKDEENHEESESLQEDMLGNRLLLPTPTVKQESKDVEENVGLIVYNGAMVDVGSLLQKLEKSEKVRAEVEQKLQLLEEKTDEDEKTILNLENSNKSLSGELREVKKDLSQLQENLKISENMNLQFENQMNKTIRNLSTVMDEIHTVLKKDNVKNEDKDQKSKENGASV
UniProt O95273: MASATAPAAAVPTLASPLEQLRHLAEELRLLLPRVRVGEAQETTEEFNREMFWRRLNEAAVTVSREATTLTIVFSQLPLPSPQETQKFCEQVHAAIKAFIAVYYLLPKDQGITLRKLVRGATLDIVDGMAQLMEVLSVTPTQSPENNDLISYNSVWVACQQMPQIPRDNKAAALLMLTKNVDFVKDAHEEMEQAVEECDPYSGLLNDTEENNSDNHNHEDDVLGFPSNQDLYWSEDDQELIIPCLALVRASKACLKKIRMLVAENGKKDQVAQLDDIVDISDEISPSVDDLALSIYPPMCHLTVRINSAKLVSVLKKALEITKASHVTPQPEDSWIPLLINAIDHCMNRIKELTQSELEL
UniProt P48509: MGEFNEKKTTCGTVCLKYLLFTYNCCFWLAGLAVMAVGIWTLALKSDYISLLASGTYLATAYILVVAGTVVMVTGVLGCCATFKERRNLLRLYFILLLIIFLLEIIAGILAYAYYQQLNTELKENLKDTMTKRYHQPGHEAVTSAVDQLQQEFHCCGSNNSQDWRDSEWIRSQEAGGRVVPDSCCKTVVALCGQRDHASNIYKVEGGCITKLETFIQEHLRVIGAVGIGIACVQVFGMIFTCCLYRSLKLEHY
UniProt P48643, whole entry, looked up: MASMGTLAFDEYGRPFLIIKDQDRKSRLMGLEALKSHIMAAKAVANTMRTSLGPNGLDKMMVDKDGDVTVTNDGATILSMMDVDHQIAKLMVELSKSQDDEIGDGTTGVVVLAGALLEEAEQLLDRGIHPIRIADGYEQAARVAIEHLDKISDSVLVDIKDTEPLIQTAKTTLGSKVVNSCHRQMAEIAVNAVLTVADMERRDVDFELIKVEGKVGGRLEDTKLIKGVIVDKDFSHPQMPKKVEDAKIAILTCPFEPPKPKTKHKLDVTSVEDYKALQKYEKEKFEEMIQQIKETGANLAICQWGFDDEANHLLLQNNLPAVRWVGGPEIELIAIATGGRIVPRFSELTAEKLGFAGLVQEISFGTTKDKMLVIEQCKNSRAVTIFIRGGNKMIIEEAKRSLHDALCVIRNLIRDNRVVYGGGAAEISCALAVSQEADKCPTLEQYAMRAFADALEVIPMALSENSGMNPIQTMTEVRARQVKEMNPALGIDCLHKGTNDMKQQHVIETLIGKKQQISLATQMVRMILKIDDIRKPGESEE
UniProt Q9Y2V2: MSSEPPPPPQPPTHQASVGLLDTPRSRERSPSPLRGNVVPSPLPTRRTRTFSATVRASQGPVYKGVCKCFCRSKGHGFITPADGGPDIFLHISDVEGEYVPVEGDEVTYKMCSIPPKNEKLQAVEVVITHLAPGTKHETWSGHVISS

log2 fold change, inactive:
CD46 isoform 2 (UniProt P15529) -0.023
CCNB2 (UniProt O95067) -0.038
CBX3 (UniProt Q13185) 0.016
CCT2 (UniProt P78371) -0.007
CASP3 (UniProt P42574) -0.01
CCNB1 (UniProt P14635) 0.165
CAT (UniProt P04040) -0.008
CCT6A (UniProt P40227) 0.003
CASP9 (UniProt P55211) -0.011
CCDC58 (UniProt Q4VC31) -0.024
CD47 (UniProt Q08722) -0.002
CCNK isoform 4 (UniProt O75909) -0.005
CCDC12 (UniProt Q8WUD4) 0.006
CCDC93 (UniProt Q567U6) -0.013
CBX4 (UniProt O00257) 0.01
CCDC25 (UniProt Q86WR0) 0.024
CCDC88A (UniProt Q3V6T2) 0.042
CCDC88C (UniProt Q9P219) 0.017
CCDC22 (UniProt O60826) 0.025
CCDC97 (UniProt Q96F63) -0.038
CCNYL1 (UniProt Q8N7R7) 0.075
CBLB (UniProt Q13191) -0.002
CAVIN1 (UniProt Q6NZI2) -0.011
CBWD5 (UniProt Q5RIA9) 0.007
CARS2 (UniProt Q9HA77) -0.068
CCAR1 (UniProt Q8IX12) -0.001
CCNDBP1 (UniProt O95273) -0.01
CCS (UniProt O14618) 0.009
CD151 (UniProt P48509) 0.021
CCDC6 (UniProt Q16204) -0.014
CCDC117 (UniProt Q8IWD4) -0.017
CCT5 (UniProt P48643) -0.01
CARHSP1 (UniProt Q9Y2V2) -0.026

A portion from the list above, for reference:
log2 fold change, inactive:
CCNB2 (UniProt O95067) -0.038
CBX3 (UniProt Q13185) 0.016
CCT2 (UniProt P78371) -0.007
CASP3 (UniProt P42574) -0.01
CCNB1 (UniProt P14635) 0.165
CAT (UniProt P04040) -0.008
CCT6A (UniProt P40227) 0.003
CASP9 (UniProt P55211) -0.011
